Experimental findings from PMC8184810, “Light regulates stomatal development by modulating paracrine signaling from inner tissues” are described below.

In data set [1] the test system is MBP. Briefly: EMSA. To be noted: EMSA: 20 fmol biotin probe, ~1 ug protein, 20 ul binding buffer (composition not given), on ice 1 h; recombinant protein.
Data set [2] deals with T1, MBP-HY5 (Arabidopsis thaliana) (UniProt O24646).
T1 sequence (looked up): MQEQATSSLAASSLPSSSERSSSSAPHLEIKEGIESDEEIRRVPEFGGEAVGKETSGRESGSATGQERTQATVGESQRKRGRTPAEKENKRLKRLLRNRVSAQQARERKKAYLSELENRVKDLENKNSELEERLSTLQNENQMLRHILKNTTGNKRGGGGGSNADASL
Put plainly: competition with a labelled probe. The settings on record: did not effectively compete, EMSA: 20 fmol biotin probe, ~1 ug protein, 20 ul binding buffer (composition not given), on ice 1 h, recombinant protein, residues 1-168, protein details: N-terminal MBP (pETG-40A), label: biotin (pull-down), unlabeled as competitor.

Data set [3] addresses T1, MBP-HY5 (Arabidopsis thaliana). Briefly: pull-down. To be noted: 5 mM MgCl2, salmon sperm DNA; pull-down: 10 mM Tris-HCl pH 7.5, 50 mM KCl, 5 mM MgCl2, 2.5% glycerol, 0.05% NP-40, 5 ug salmon sperm DNA, 10 ug BSA, 4 C 1 h; recombinant protein; residues 1-168; protein details: N-terminal MBP (pETG-40A); label: biotin (pull-down), unlabeled as competitor.

For some of these results: A weaker result is weaker than the reference pair of the same experiment. For some of these results: Protein sequences can lack the tags named with them. For some of these results: For at least one entry, the source does not settle the construct or the ends of the probe. For some of these results: No signal at the amounts used counts as a negative.

As for “TCCTCTGTATTTTCAAACTCTTATCTCTACGTGTGCACAAACCTCACCATTAGATGATAA (double strand) [P2 (STOMAGEN promoter)]”, the binding result in data set [1] was “no binding”. Turning to “ATATGTTTGACCGAAGAAAAATAGAGTTAAATATGTTGTGCTAAAAGGATAAAGAGAAGA (double strand) [P3 (STOMAGEN promoter)]”, in data set [2] (unlabeled P3 vs biotin-P2 probe), the binding result was “binds more weakly”. For the sequence “TCTCTCTCCACAACATTTGGTCCATACGATAAAGCAAGAAGAAGAATTAAGAATTAGAGC (double strand) [P1 (STOMAGEN promoter)]”, the binding result in data set [3] and in data set [2] (unlabeled P1 vs biotin-P2 probe) was “binds more weakly” throughout.
